Experimental data from paper PMC10753498.
Results are given in words; binding and its absence hold for the method and conditions named. Binding seen in cells or lysates may run through a third protein. Some entries that bind do so weakly or less than the wild type.

Chains of the proteins cited; added tags and fusions are not shown. Residues count along the entry.
UniProt P63165, residues 1-97: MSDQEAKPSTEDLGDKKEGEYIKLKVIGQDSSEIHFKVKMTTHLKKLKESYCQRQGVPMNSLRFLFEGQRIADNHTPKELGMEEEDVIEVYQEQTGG

Target: T1, DEK (human (endogenous in U2-OS)) (UniProt P35659)
T1 sequence: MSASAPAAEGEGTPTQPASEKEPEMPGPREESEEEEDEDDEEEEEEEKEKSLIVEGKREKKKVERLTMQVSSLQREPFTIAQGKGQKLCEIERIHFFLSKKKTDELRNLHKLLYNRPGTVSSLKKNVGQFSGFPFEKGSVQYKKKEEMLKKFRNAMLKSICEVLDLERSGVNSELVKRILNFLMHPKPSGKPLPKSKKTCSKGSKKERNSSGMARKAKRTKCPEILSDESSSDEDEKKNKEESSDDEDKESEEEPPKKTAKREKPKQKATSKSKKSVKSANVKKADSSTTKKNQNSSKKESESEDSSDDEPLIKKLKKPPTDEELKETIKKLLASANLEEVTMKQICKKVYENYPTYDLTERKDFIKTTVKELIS
Test: co-IP; U2-OS lysates (hypotonic buffer, 450 mM NaCl, 0.5% NP-40, 10 mM NEM); polyclonal rabbit anti-DEK K-877 with Protein A/G Plus-Agarose; washes with 450 mM NaCl; rabbit IgG isotype control; immunoblot for SUMO1 and SUMO2/3

How did the binding turn out when “small ubiquitin-related modifier 1 (from UniProt P63165 1-97)” was run?
The binding was “binds”.
